# Results of single-concentration screens

Chains of the proteins cited; added tags and fusions are not shown. Residues count along the entry.
UniProt I6X8D2, whole entry: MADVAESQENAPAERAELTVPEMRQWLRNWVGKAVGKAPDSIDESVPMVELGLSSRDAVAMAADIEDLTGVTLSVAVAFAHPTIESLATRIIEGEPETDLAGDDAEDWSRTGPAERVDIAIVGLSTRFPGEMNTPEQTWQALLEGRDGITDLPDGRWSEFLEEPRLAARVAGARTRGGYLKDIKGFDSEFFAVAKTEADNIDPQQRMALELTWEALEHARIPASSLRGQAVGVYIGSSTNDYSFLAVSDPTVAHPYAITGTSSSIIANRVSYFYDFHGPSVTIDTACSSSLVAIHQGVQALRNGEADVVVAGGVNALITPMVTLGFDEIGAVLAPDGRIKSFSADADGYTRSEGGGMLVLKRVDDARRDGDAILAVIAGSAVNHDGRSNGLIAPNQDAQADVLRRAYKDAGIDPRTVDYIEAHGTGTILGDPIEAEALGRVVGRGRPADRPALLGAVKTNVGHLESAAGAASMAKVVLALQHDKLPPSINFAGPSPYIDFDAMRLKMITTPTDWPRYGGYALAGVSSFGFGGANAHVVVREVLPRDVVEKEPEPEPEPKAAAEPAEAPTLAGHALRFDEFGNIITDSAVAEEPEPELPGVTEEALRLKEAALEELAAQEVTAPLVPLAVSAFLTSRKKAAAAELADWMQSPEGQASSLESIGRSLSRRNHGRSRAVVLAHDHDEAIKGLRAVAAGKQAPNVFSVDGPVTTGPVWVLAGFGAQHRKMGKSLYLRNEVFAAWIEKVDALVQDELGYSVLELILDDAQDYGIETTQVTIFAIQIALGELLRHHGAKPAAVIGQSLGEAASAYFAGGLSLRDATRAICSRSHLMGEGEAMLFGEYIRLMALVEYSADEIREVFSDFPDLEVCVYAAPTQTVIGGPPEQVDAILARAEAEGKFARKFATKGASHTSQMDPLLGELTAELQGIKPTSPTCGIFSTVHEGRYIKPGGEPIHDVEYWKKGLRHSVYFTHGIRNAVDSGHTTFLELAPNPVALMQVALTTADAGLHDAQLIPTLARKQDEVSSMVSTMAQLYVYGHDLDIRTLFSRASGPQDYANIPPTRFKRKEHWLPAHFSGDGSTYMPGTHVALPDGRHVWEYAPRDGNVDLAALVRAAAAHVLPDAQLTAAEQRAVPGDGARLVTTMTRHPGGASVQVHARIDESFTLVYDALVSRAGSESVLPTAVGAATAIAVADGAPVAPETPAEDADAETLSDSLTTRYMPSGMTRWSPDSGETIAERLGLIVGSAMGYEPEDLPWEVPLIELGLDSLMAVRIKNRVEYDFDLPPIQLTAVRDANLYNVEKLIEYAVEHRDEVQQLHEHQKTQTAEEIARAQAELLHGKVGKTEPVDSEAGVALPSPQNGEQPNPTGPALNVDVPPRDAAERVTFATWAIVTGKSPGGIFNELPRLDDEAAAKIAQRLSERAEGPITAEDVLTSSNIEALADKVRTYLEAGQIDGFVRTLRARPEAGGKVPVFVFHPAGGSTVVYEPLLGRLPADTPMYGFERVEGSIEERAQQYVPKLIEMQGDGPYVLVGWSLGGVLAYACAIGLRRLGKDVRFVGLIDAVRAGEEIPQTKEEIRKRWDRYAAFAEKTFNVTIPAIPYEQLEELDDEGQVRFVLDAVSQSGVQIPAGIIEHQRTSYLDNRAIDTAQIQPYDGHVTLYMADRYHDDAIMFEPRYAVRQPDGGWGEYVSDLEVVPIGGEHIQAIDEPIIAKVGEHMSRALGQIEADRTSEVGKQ
UniProt A4I591, 1-473: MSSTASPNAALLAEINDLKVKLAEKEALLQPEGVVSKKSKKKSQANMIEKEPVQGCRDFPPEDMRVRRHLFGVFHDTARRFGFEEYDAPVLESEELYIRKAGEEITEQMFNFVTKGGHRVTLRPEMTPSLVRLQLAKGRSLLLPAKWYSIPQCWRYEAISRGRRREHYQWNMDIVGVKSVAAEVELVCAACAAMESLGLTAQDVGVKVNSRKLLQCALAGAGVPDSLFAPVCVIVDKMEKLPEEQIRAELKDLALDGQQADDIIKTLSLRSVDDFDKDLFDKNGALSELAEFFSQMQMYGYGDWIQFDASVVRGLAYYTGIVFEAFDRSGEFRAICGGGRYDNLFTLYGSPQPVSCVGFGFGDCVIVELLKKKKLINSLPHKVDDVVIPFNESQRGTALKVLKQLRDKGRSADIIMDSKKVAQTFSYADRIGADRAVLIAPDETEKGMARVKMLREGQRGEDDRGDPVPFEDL
UniProt P9WPC5, whole entry: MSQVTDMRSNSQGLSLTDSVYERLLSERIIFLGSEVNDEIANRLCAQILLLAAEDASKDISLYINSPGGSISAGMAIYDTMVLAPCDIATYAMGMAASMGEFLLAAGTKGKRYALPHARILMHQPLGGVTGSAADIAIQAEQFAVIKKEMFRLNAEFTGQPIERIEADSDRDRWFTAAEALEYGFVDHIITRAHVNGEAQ
UniProt P9WPC3, whole entry partner: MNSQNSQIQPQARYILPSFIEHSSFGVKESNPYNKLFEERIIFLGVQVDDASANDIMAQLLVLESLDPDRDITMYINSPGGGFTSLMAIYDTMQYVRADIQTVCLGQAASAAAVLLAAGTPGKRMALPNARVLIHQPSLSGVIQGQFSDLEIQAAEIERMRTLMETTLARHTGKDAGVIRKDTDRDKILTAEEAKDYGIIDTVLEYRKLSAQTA
UniProt P9WNZ1, whole entry: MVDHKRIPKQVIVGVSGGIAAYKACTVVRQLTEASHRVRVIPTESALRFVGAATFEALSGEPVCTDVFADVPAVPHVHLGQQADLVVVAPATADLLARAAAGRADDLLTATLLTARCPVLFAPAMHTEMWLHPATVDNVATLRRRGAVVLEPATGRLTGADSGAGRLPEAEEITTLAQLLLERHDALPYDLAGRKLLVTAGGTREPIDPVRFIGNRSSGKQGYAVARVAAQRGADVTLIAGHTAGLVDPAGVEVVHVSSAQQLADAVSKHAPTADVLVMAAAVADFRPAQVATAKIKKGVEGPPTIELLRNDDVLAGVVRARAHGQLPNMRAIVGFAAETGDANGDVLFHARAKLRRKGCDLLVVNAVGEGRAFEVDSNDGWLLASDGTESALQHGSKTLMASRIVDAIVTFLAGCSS

Each number is a percent effect as filed.
How 0% and 100% were set is not recorded. Most values in the screen are low, and negative values occur.
Compounds were drawn at random from those tested, without regard to their results.
Two or more numbers in one place are separate tests of the same structure; such repeats can differ widely.
A dash means the value is not listed here; it may have been measured.

Pks13 thioesterase: 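Enzyme assay of the thioesterase domain of polyketide synthase 13; the read-out is not stated. Target: Polyketide synthase Pks13, Mycobacterium tuberculosis (UniProt I6X8D2). Tested at 30 µM. The record gives no direction; the compounds picked for IC50 retests had high values, so higher reads as stronger inhibition. About 67,000 compounds were tested under these conditions; 0.46% (about 300) showed 50% or more at least once.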
LiHisRS: 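Histidine-tRNA ligase, Leishmania infantum (UniProt A4I591). Enzyme assay of histidyl-tRNA synthetase; the read-out is not stated. Concentration: 30 µM. Higher reads as stronger inhibition (inferred: compounds with an IC50 in retests scored well above the rest). The assay is labelled LdHisRS but filed under L. infantum. Size under these conditions: about 69,000 compounds, about 410 of them at 50% or above in at least one test.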
Leishmania in macrophages: 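Cell assay of Leishmania donovani living inside macrophages; the read-out is not stated. Concentration: 30 µM. The record gives no direction; compounds that gave an IC50 in retests scored well above the rest, so higher reads as stronger inhibition. Size under these conditions: about 69,000 compounds, about 1,000 of them at 50% or above in at least one test.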
ClpP1P2: 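Protease assay of ClpP1P2, read by the AMC dye that it sets free. Target: ClpP1P2, Mycobacterium tuberculosis (UniProt P9WPC5 and UniProt P9WPC3). Concentration: 50 µM. Higher reads as stronger inhibition, judged from the few compounds that gave an IC50. Most other retested compounds had strongly negative values. About 69,000 compounds were tested under these conditions; 0.015% (about 10) showed 50% or more at least once.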
Toxoplasma: 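Assay of Toxoplasma gondii numbers, read through their beta-galactosidase reporter with a colour substrate. Tested at 10 µM. Higher reads as fewer parasites (inferred from which compounds were picked for retests). Size under these conditions: about 67,000 compounds, about 260 of them at 50% or above in at least one test.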
CoaBC: 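Coenzyme A biosynthesis protein CoaBC, Mycobacterium tuberculosis (UniProt P9WNZ1). Enzyme assay of CoaBC with a phosphate dye (Biomol Green) read at 650 nm. Tested at 30 µM. Higher reads as stronger inhibition, judged from the few compounds that gave an IC50. Most strong results did not repeat in a second test. Size under these conditions: about 67,000 compounds, about 40 of them at 50% or above in at least one test.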

| Compound | Pks13 thioesterase | LiHisRS | Leishmania in macrophages | ClpP1P2 | Toxoplasma | CoaBC |
|---|---|---|---|---|---|---|
| `CC1=C[C@@H](CN2CCC(CO)CC2)[C@H](C(C)C)C[C@H]1Cc1nnc(C)o1` | 3.943% | 10.81% | -7.483% | -0.3272% | -3.644% | -13.16% |
| `CC(O)CN1CCC(CNCc2ccccc2OC(F)(F)F)CC1` (configuration not stated) | -12.69% | 2.128% | 31.23% | 1.591% | 13.01% | -0.7772% |
| `CC(O)CN1CCC(CN(C)CC(=O)NC2CCOCC2)CC1` (configuration not stated) | -31.31% | 5.208% | 4.244% | -2.933% | 2.142% | -24.11% |
| `CNC(=O)C1(CCCc2cccnc2)CCCCN1` (configuration not stated) | -31.4% | 19.44% | -5.646% | 15.5% | -3.139% | 0.5556% |
| `CN(C)C(=O)CN1CCC2(CCN(S(C)(=O)=O)CC2)C1=O` | -21.67% | 17.31% | 10.17% | -2.209% | 1.146% | 2.96% |
| `O=C(NCc1c(F)cccc1Cl)c1cc(CN2CCCC(O)C2)on1` (configuration not stated) | -1.684% | 4.255% | -0.9634% | -5.47% | 9.079% | 2.481% |
| `O=C(Cc1cccs1)NCC1(O)CCSCC1` | -33.1% | 14.53% | 4.366% | 6.837% | 9.437% | 6.723% |
| `Cc1nc(C)n(CC2CN(Cc3cccc(C(N)=O)c3)CCO2)n1` (configuration not stated) | -10.17% | 15.38% | 7.988% | -6.727% | -8.978% | -1.035% |
| `O=C(O)c1ccnc(-c2ccnc(COc3cccc(F)c3)n2)c1` | -14.28% | 11.2% | -14.04% | -1.133% | 6.485% | 0.2439% |
| `Cc1cc(C)n(CC2CCCCN2CCCS(N)(=O)=O)n1` (configuration not stated) | -15.56% | 20.27% | 20.44% | 4.311% | 20.24% | -2.738% |
| `CC(C1CC1)N(C)Cc1nnc(-c2ccc(Br)s2)o1` (configuration not stated) | 2.669% | 17.74% | 23.78% | -17.33% | 7.726% | 1.818% |
| `CCCS(=O)(=O)N1CCC2(CCC(=O)N(Cc3ccccc3)C2)CC1` | -2.417% | 16% | 4.633% | -6.48% | -16.06% | -0.2475% |
| `Cc1noc(Cl)c1CC(=O)NCC(C)(O)c1ccc(F)cc1F` (configuration not stated) | -27.14% | 4.478% | -7.152% | 0.8345% | 1.38% | 0% |
| `Cc1nc(NCc2ccc(F)cc2)cc(C2CCCN2)n1.Cl` (configuration not stated) | - | - | -8.112% | - | 28.93% | - |
| `Cc1cnn(CC2CN(CC(=O)Nc3cc(C)on3)CCO2)c1` (configuration not stated) | -13.73% | 9.174% | 13% | -48.95% | 12.25% | 1.279% |
| `COc1cc(CNc2cnn(C)c2)cc2c1OCCO2` | 7.427% | 53.6% | 19.32% | 3.698% | 13.83% | 0.266% |
| `CCN(CC)C[C@H]1CN2CC[C@H]1C[C@@H]2CNC(=O)Nc1ccsc1` | -17.07% | 22.22% | - | -0.3216% | - | -27.31% |
| `[H][C@@]12CCN(Cc3nccs3)C[C@]1(c1nnc(C)o1)CCO2` | - | - | -4.986% | - | -10.62% | - |
| `CCC(C(=O)N(Cc1ccccn1)C1CCCCC1)n1cccn1` (configuration not stated) | -28.6% | 15.56% | 13.92% | -5.83% | -24.54% | 12.17% |
| `O=C(O)C(F)(F)F.[H][C@@]12CCN(CCc3ccccc3)C[C@@]1([H])[C@H](C(=O)NC)CCO2` | - | - | 1.463% | - | 8.086% | - |
| `CC(C)Nc1nc2c(s1)C(=O)CN(CC1CC1)C2` | 11.51% | 22.86% | 11.81% & 15.27% | -1.188% | 0.06048% | -0.6024% |
| `O=C(COc1ccc(Cl)cc1)N1CCOCC1c1ncon1` (configuration not stated) | -2.392% | 6.14% | -6.398% | -18.25% | -1.224% | 4.54% |
| `CCN(CC)C(=O)CCNC(=O)N(C)Cc1ccc(SC)c(OC)c1` | -15.86% | 6.061% | -15.34% | -5.058% | -1.79% | 8.266% |
| `O=C(O)C(F)(F)F.O=C(O)C(F)(F)F.[H][C@@]12COC[C@@H](C(=O)N3CCCCO3)[C@]1([H])CN(Cc1cnn(C)c1)C2` | - | - | 9.586% | - | 0.4992% | - |
| `O=C(O)C(F)(F)F.[H][C@@]12CN(Cc3nccs3)C[C@]1([H])C(=O)N(c1ccsc1)C2` | - | - | -31.13% | - | -1.237% | - |
| `Cc1nc(CN2CCCC(CCc3c(F)cccc3F)C2)c[nH]1` (configuration not stated) | -16.3% | 15.24% | 47.92% | -14% | 12.07% | -44.74% |
| `CCNC(=O)CN(CC)C(=O)Cc1csc(C(C)C)n1` | -16.62% | -9.859% | 17.83% | -0.9143% | -2.479% | -4.577% |
| `COc1ccc(-c2ccccc2CN)c(OC)c1` | -23.54% | 8% | 18.4% | 11.72% | -18.15% | 0.2475% |
| `CCOc1ccc(C(=O)CCC(=O)NCc2cncn2CC)cc1C` | -0.8058% | -9.677% | -10.82% | 19.58% | -2.075% | -1.34% |
| `COc1cccc(OCCNC(=O)CN2CCN(C)CC2C)c1` (configuration not stated) | -3.756% | 15.38% | 25.61% | 11.39% | 3.446% | 9.106% |
| `O=C(O)C1(Cc2ccccc2F)CCCN(c2ncnc3[nH]ccc23)C1` (configuration not stated) | 2.735% | 6.557% | 29.09% | 1.244% | 25.68% | -2.512% |
| `O=C(N1CCOCC1)[C@@]12CCO[C@@H]1CCN(C1CCC1)C2` | 11.98% | 20.51% | - | -6.863% | - | -0.7519% |
| `Cc1ccc2c(c1)CN(C(=O)C1CCCCC1)C(CN(C)C)CO2` (configuration not stated) | -41.72% | 16.67% | - | 9.075% | - | -8.611% |
| `COCCC1(C(=O)O)CCCN(C(=O)c2cc(F)ccc2OC)C1` (configuration not stated) | -4.666% | 3.797% | -17.44% | -10.43% | -10% | -0.8872% |
| `COCCn1ccnc1CN1CCc2[nH]cnc2C1c1ccccn1` (configuration not stated) | -19.25% | 17.39% | 19.2% | -17.43% | - | 2.795% |
| `O=C(O)C(F)(F)F.[H][C@@]12CCN(C(=O)COCC)C[C@]1(COc1ncccc1F)CCO2` | - | - | -6.285% | - | -4.992% | - |
| `Cc1ccccc1CN(C)Cc1nc2c(cnn2C)c(=O)[nH]1` | -1.367% | 0% | 20.56% | 29.37% | -19.77% | -0.2591% |
| `CC(=O)c1ccc(-n2c(C)cn(CCC#N)c2=O)cc1` | -40.44% | -5.263% | 4.833% & 3.405% | -2.172% | 1.067% | 2.025% |

Source: ChEMBL document CHEMBL3988442, “University of Dundee, Small-Polar-MMV Screening Library” (2021).